Measurements: PMC11933467
No constants are given. Whether binding was seen depends on the method and setting. Binding seen in cells or lysates may run through a third protein. Some results given as binding are weak or reduced against the parent protein; the word gives no strength. Sequences can lack the tags named with a protein.

Target: T1, CG7611-GFP (Drosophila melanogaster) (UniProt Q7K0L4)
T1 sequence: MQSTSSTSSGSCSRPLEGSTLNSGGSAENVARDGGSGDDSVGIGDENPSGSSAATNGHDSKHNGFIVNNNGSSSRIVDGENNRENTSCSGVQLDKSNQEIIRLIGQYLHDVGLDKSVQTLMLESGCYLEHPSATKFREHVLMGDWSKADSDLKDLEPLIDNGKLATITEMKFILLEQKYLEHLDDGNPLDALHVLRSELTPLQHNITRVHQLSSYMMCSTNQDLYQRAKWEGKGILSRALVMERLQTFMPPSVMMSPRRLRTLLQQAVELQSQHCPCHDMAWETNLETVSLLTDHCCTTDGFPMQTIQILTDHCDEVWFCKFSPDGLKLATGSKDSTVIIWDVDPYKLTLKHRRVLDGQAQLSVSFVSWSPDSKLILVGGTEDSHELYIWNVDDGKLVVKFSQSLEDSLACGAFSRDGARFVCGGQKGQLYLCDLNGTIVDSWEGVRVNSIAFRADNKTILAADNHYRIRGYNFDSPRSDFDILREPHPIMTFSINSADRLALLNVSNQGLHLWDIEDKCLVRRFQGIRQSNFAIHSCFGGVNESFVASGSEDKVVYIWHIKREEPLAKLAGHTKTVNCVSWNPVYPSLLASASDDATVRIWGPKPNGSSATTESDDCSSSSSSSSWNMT
Assay: co-IP; S2 cells transfected with CG7611-GFP and/or Muskelin-Flag; lysates immunoprecipitated with anti-Flag beads or anti-GFP; western blot

B1: RanBPM (protein, UniProt Q4Z8K6 1-962)
chain: MENVEEAPPLSSESNSNSNNSSASSSSHQLSQSGAMGAEIAPSTSRSHSHSPTPSPPVPASSHDQPHPDHPSPPLNASETEARENSPHDHSPTPTFHQTAPPPTTSSTAPQRDEREQQQQQEAPPLQQDQQENSPAQDQELHPLLDQQNQEYPAVHQDQQAEQNQELHHIEGLIRHRESQNPEEHPPQASLENRETLGREDTNQEPDEPQVRDPEIEPEAEPPPPLLLEDLDEQDSGSQDLNEQQPPLIIDANAIAETIDANAVERIDDYEDDDEEVDEEEEVVEDRVDRAGEVASVSGAQRLHSVAVLPRYSSASRAPRSSNNNNNNISNHNNNNNNSNSNSLSRRTRHFYSNNGSHFSNDMFPSHNPRSSTQTSSPRVGGRRHHSTPAASSNSPQHQGVDPLRLLYPNVNESETPLPRCWSPHDKCLSIGLSQNNLRVTYKGVGKQHSDAASVRTAYPIPSSCGLYYFEVRIISKGRNGYMGIGLTAQQFRMNRLPGWDKQSYGYHGDDGNSFSSSGNGQTYGPTFTTGDVIGCCVNFVNNTCFYTKNGVDLGIAFRDLPTKLYPTVGLQTPGEEVDANFGQEPFKFDKIVDMMKEMRSNVLRKIDRYPHLLETPENLMNRLVSTYLVHNAFSKTAEAFNGYTNQTFNEDLASIKTRQKIIKLILTGKMSQAIEHTLRSFPGLLENNKNLWFALKCRQFIEMINGADIENVNNKVTATTQTMPTNQTSVIQSTKTFKHSKSGSGNGNVNINQTQQQNNTAIPAVIKPQGGDRPDIKNMLVDDNSNKCVEHDSNSMDVEMEPCQSHSNGGDSSSNGNASAVRNSLDAIDEEMDVDVSPSSRNCGRVIEKILEFGKELSSMGQQLEKENLMTEEERQMLEDAFSLIAYSNPWSSPLGWLLCPSRRESVSTTLNSAILESLNFERRPPLEYLVAHASELIKVIGQHSLGEDAFITIDDVFPQN
With B1 the binding was “binds”.
